In the M2OR odorant receptor database:
Where a chain is given by its changes, count along the chain named. Only a part is listed here, and it is no random draw. Calls are pooled over several reports, among them a noisy single-well screen. This is one part of the list.

Chains of the proteins cited; added tags and fusions are not shown. Lines headed by an entry give the natural chain unless they say otherwise; changes in a name come on top. A line that says so, or that is headed by a name, gives the form on record, which may keep a tag or linker.
UniProt Q96R45: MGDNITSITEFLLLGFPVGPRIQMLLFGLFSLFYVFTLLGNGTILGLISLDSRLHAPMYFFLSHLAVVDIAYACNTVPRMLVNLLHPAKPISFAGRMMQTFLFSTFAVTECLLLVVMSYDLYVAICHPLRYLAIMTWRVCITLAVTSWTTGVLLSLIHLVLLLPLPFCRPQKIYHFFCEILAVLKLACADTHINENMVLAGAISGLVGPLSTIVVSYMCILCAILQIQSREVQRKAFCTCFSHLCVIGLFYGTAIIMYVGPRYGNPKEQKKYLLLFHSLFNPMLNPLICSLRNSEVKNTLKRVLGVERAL
OR2A7, as listed by the source: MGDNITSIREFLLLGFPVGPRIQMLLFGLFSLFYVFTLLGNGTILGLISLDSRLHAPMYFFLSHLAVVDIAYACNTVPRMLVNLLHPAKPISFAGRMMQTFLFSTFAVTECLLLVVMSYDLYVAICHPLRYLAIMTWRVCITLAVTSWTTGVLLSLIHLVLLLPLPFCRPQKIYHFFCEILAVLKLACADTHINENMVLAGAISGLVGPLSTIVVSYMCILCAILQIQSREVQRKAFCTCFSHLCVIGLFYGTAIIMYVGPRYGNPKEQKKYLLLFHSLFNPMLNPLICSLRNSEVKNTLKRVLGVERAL
OR2A2, as listed by the source: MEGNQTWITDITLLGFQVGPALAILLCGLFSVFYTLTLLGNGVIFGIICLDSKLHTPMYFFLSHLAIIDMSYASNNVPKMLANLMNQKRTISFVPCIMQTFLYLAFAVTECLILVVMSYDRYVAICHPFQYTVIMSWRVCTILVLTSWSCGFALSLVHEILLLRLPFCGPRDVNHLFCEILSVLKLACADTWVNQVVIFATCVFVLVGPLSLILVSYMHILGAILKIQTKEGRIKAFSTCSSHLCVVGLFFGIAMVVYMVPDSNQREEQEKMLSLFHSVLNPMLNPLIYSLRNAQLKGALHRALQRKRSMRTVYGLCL

Assays:
Settings in all cases: stereoisomer not certain
OR1L8 (Homo sapiens) = molecular target: T1, OR1L8 (Homo sapiens) (UniProt Q8NGR8)
T1 sequence (whole entry): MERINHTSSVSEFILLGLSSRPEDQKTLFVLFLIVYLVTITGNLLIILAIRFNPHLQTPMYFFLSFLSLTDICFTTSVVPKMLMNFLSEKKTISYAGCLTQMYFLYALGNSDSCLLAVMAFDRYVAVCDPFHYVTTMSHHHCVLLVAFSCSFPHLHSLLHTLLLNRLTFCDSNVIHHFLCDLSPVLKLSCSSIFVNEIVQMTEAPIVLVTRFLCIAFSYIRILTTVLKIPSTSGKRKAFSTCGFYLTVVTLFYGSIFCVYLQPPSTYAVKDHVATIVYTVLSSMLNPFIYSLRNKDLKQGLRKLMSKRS
How it was run: (§1)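 Whether a receptor–molecule pair is responsive (active) rests on the original authors' judgment that its measured signal was statistically different from baseline. Pairs without that judgment are non-responsive (inactive). Sources used varied assay methods, commonly transient luciferase assays in mammalian cell lines.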

OR1M1 = test system: T2, OR1M1
T2 sequence (whole entry): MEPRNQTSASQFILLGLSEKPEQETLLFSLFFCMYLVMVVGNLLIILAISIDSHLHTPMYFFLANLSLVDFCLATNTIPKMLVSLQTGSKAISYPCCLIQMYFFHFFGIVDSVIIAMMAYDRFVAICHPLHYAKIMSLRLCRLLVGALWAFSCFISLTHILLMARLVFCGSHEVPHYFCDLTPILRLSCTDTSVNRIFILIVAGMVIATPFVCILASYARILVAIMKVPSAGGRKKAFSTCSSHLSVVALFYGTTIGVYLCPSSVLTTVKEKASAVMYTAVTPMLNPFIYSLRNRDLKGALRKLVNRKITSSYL
How it was run: as §1

OR1N1 (Homo sapiens) = molecular target: T3, OR1N1 (Homo sapiens) (UniProt Q8NGS0)
T3 sequence (whole entry): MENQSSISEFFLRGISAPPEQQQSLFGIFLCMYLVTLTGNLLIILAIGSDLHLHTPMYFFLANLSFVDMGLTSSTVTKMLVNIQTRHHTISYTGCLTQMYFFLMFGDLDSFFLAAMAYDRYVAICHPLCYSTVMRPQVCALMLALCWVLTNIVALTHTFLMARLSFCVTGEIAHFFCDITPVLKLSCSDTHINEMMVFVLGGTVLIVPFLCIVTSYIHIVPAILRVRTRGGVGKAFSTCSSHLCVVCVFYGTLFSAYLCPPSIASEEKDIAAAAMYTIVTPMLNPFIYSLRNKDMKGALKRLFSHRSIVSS
How it was run: as §1

OR1N2 (Homo sapiens) = molecular target: T4, OR1N2 (Homo sapiens) (UniProt Q8NGR9)
T4 sequence (whole entry): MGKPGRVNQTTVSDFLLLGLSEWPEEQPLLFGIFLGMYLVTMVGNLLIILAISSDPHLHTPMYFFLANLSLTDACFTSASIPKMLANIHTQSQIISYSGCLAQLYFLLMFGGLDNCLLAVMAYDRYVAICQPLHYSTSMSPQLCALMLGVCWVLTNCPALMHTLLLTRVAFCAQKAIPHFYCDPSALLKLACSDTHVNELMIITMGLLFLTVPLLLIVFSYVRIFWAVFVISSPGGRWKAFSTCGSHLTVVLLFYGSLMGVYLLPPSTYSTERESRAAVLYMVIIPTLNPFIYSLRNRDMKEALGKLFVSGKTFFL
How it was run: as §1

OR1N2 = test system: T5, OR1N2
T5 sequence (whole entry): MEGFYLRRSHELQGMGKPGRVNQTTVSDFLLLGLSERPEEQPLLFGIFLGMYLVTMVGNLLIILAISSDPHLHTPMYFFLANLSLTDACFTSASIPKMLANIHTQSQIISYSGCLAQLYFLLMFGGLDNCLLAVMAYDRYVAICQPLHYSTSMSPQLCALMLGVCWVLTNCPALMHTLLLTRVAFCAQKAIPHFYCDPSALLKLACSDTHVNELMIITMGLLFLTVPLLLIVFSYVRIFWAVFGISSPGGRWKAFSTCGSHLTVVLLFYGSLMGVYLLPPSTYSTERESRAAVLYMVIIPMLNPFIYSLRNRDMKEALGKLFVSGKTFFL
How it was run: as §1

OR1Q1 = test system: T6, OR1Q1
T6 sequence (whole entry): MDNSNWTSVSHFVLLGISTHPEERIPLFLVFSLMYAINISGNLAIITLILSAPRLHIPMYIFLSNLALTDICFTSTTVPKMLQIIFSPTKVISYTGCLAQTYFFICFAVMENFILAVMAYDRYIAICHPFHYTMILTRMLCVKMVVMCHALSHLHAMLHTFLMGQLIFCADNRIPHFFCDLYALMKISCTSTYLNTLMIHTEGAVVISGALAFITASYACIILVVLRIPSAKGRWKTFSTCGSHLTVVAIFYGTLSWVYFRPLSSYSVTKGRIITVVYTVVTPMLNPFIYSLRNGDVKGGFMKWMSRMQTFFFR
How it was run: as §1

OR1S1 = test system: T7, OR1S1
T7 sequence (whole entry): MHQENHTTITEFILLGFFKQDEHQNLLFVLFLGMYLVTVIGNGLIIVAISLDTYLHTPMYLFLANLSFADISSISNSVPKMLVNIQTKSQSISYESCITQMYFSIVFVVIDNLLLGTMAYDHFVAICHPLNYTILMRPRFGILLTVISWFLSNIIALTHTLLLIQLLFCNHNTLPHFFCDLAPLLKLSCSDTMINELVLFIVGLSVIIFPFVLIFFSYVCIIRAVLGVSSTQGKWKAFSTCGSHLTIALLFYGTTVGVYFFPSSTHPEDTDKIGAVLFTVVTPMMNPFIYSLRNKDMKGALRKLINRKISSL
How it was run: as §1

OR1S2 = test system: T8, OR1S2
T8 sequence (whole entry): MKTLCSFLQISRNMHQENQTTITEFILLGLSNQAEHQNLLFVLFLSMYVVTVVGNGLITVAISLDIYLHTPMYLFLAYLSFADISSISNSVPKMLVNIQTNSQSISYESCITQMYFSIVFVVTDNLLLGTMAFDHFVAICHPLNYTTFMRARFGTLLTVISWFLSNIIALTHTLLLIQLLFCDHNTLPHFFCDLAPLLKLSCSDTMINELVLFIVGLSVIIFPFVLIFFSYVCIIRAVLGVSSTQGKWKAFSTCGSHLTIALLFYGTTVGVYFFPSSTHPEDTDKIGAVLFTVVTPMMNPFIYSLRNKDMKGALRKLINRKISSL
How it was run: as §1

OR2A12 (Homo sapiens) = molecular target: T9, OR2A12 (Homo sapiens) (UniProt Q8NGT7)
T9 sequence (whole entry): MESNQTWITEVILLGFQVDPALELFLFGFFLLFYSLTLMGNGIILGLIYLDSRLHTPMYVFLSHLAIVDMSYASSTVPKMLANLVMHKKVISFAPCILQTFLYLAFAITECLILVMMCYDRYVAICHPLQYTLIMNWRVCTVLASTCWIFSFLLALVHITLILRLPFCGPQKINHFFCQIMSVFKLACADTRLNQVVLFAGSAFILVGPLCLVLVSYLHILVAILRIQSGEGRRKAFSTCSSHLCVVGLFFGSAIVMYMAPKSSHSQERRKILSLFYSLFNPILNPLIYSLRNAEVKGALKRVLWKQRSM
How it was run: as §1

OR2A14 (Homo sapiens) = molecular target: T10, OR2A14 (Homo sapiens) (UniProt Q96R47)
T10 sequence (whole entry): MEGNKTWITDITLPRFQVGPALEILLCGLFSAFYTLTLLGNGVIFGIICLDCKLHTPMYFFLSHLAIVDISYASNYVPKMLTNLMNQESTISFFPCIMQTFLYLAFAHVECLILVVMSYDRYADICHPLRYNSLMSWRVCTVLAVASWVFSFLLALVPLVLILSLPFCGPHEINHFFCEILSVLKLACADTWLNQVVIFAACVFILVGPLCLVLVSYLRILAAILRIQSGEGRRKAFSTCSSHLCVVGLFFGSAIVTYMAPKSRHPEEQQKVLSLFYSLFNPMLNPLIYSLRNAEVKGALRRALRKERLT
How it was run: as §1

OR2A1 [1] = test system: T11, OR2A1
T11 sequence (whole entry): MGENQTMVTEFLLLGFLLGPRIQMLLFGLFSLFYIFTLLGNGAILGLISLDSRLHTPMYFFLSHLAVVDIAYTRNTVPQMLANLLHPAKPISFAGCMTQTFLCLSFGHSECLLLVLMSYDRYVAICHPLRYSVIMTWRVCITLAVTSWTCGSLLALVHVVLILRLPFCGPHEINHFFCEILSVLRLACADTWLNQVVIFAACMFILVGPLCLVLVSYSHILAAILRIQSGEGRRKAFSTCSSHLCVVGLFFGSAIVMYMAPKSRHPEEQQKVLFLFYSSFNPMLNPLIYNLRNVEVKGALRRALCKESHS
How it was run: as §1

OR2A1 [2] = test system: T12, OR2A1; remark: listed apart in the source
T12 sequence (whole entry): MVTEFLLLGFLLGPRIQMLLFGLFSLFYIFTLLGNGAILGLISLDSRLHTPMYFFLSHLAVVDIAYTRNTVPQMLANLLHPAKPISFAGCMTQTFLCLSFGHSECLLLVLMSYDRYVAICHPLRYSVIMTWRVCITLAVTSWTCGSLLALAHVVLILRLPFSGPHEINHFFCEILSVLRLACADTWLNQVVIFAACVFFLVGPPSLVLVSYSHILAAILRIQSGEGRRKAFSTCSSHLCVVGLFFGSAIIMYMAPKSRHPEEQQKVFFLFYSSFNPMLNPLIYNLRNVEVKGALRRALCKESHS
How it was run: as §1

OR2A2 (Homo sapiens) = molecular target: T13, OR2A2 (Homo sapiens) (UniProt Q6IF42)
T13 sequence (whole entry): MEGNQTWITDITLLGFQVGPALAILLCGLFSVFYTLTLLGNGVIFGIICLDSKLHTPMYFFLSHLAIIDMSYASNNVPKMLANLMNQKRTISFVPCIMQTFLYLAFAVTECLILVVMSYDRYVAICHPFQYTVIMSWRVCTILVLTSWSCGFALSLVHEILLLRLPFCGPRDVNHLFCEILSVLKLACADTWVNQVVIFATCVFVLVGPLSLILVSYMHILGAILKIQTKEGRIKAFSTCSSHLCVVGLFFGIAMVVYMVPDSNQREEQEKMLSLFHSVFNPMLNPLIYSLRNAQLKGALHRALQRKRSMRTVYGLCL
How it was run: as §1

OR2A25 (Homo sapiens) = molecular target: T14, OR2A25 (Homo sapiens) (UniProt A4D2G3)
T14 sequence (whole entry): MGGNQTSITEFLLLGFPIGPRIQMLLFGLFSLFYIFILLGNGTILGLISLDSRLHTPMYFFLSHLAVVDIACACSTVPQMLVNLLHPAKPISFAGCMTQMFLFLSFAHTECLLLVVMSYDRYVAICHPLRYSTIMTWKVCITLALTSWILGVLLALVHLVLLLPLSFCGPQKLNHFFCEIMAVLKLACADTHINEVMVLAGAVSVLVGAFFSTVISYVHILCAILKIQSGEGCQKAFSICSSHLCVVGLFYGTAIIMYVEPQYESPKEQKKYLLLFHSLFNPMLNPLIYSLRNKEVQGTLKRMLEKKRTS
How it was run: as §1

OR2A2 = test system: T15, OR2A2
T15 sequence (whole entry): T13 sequence (whole entry) with F280L
How it was run: as §1

OR2A4 (Homo sapiens) = molecular target: T16, OR2A4 (Homo sapiens) (UniProt O95047)
T16 sequence (whole entry): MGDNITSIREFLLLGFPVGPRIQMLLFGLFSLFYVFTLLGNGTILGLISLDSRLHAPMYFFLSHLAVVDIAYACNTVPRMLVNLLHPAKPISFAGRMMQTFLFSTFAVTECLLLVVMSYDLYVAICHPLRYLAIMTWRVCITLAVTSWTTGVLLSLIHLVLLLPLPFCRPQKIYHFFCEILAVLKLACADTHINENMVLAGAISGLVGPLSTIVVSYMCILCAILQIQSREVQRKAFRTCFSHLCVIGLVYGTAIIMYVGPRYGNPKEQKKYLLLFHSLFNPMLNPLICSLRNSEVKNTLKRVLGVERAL
How it was run: as §1

OR2A5 (Homo sapiens) = molecular target: T17, OR2A5 (Homo sapiens) (UniProt Q96R48)
T17 sequence (whole entry): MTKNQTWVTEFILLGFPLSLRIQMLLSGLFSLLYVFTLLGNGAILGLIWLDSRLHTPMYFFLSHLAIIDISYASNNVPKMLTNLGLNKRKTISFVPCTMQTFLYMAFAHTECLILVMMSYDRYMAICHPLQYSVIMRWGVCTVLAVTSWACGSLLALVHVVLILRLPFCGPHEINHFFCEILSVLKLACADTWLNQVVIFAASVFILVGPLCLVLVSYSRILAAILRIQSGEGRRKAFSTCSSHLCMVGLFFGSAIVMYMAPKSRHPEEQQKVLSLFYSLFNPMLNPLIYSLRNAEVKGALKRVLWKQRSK
How it was run: as §1

OR2A7 (Homo sapiens) = molecular target: T18, OR2A7 (Homo sapiens) (UniProt Q96R45)
T18 sequence (whole entry): T16 sequence (whole entry) with R9T, R238C, V250F
How it was run: as §1

OR2A7 = test system: T19, OR2A7
T19 sequence (whole entry): T16 sequence (whole entry) with R238C, V250F
How it was run: as §1

OR2AG1 (Homo sapiens) = molecular target: T20, OR2AG1 (Homo sapiens) (UniProt Q9H205)
T20 sequence (whole entry): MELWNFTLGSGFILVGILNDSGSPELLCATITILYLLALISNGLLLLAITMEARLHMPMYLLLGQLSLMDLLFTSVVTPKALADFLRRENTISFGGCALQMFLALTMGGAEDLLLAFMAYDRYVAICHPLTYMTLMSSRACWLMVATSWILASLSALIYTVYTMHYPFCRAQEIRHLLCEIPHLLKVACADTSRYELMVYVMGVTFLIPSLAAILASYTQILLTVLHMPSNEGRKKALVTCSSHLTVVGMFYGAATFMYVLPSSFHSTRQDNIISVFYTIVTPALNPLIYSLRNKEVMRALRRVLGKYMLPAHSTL
How it was run: as §1

Measured: odorant receptor agonist call

CS
inactive: all assays above

CCC(C)=O
inactive: all assays above
